## Drug screen on melanoma cell lines: apoptosis marker

Source: doi:10.1371/journal.pone.0140310, primary screening data, rounded.

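Human melanoma cells were exposed to a pair of drugs for 72 h in 1,536-well plates and read by automated microscopy after fixing and staining. The read-out is the fraction of cleaved-PARP-positive nuclei, in % of that fraction in the DMSO control; 200 means twice the control level of this apoptosis marker. Every drug was used at one fixed concentration, the higher of two screened. The file gives one value for each pair and line, without errors, so small differences may be noise. Basal and induced levels differ widely between cell lines.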 An unselected part of the screen is shown. A dash means that no value is listed here.

Drug key:
enzastaurin: Cn1cc(C2=C(c3cn(C4CCN(Cc5ccccn5)CC4)c4ccccc34)C(=O)NC2=O)c2ccccc21 at 4 µM
GW441756: Cn1cc(/C=C2\C(=O)Nc3cccnc32)c2ccccc21 at 2 µM
CHIR-265: Cn1c(Nc2ccc(C(F)(F)F)cc2)nc2cc(Oc3ccnc(-c4ncc(C(F)(F)F)[nH]4)c3)ccc21 at 0.4 µM
GSK650394: O=C(O)c1ccc(-c2c[nH]c3ncc(-c4ccccc4)cc23)cc1C1CCCC1 at 0.8 µM
PLX4720: CCCS(=O)(=O)Nc1ccc(F)c(C(=O)c2c[nH]c3ncc(Cl)cc23)c1F at 0.4 µM
pazopanib: Cc1ccc(Nc2nccc(N(C)c3ccc4c(C)n(C)nc4c3)n2)cc1S(N)(=O)=O at 2 µM
midostaurin: CO[C@@H]1[C@H](N(C)C(=O)c2ccccc2)C[C@H]2O[C@]1(C)n1c3ccccc3c3c4c(c5c6ccccc6n2c5c31)C(=O)NC4 at 0.4 µM
VX-702: NC(=O)c1ccc(N(C(N)=O)c2c(F)cccc2F)nc1-c1ccc(F)cc1F at 2 µM
bexarotene: C=C(c1ccc(C(=O)O)cc1)c1cc2c(cc1C)C(C)(C)CCC2(C)C at 10 µM
SNS-032: CC(C)(C)c1cnc(CSc2cnc(NC(=O)C3CCNCC3)s2)o1 at 0.05 µM
PD173074: CCN(CC)CCCCNc1ncc2cc(-c3cc(OC)cc(OC)c3)c(NC(=O)NC(C)(C)C)nc2n1 at 0.5 µM
MK-2206: NC1(c2ccc(-c3nc4ccn5c(=O)[nH]nc5c4cc3-c3ccccc3)cc2)CCC1 at 2 µM
A-769662: N#Cc1c(O)c2c(-c3ccc(-c4ccccc4O)cc3)csc2[nH]c1=O at 10 µM
decitabine: Nc1ncn([C@H]2C[C@H](O)[C@@H](CO)O2)c(=O)n1 at 0.5 µM
docetaxel: CC(=O)O[C@@]12CO[C@@H]1C[C@H](O)[C@@]1(C)C(=O)[C@H](O)C3=C(C)[C@@H](OC(=O)[C@H](O)[C@@H](NC(=O)OC(C)(C)C)c4ccccc4)C[C@@](O)([C@@H](OC(=O)c4ccccc4)[C@H]21)C3(C)C at 0.0005 µM
sorafenib: CNC(=O)c1cc(Oc2ccc(NC(=O)Nc3ccc(Cl)c(C(F)(F)F)c3)cc2)ccn1 at 2 µM

Pair	UACC-62	COLO 792	WM115	A2058	SK-MEL-2	A375	SK-MEL-28	RVH-421	SK-MEL-30	WM3526
enzastaurin and midostaurin	224	274	698	683	175	-	319	83.1	152	366
PD173074 and sorafenib	95.6	16.7	113	121	75.5	43.2	92.3	68.1	129	101
midostaurin and SNS-032	260	186	966	386	349	-	185	39.3	138	596
enzastaurin and CHIR-265	309	287	2370	207	290	219	149	182	187	343
VX-702 and pazopanib	79.6	29.3	110	67.6	74.6	77.4	90.3	119	71.7	106
PD173074 and GSK650394	31.4	120	175	68.2	213	78.0	89.7	239	94.5	70.1
decitabine and GSK650394	146	101	151	104	87.2	-	136	355	82.9	91.9
midostaurin and GW441756	186	157	210	343	137	159	153	52.9	264	196
sorafenib and MK-2206	192	174	136	85.6	146	50.2	53.9	43.1	84.9	183
GSK650394 and bexarotene	129	118	58.0	53.3	79.9	-	84.2	111	51.5	140
CHIR-265 and pazopanib	510	850	491	284	139	85.3	145	50.8	107	445
MK-2206 and A-769662	237	342	85.7	71.5	176	62.5	158	94.0	154	59.8
PLX4720 and A-769662	177	104	207	104	64.2	209	178	330	57.6	146
GSK650394 and midostaurin	111	289	149	147	235	-	298	64.2	103	202
A-769662 and GSK650394	128	86.8	11800	151	119	53.9	177	105	48.5	107
SNS-032 and pazopanib	162	83.8	92.1	108	180	-	233	95.0	219	205
bexarotene and pazopanib	53.1	41.3	90.3	67.1	63.1	40.3	55.1	23.3	86.0	118
GW441756 and MK-2206	244	115	158	75.3	41.4	67.0	83.8	154	97.2	213
decitabine and docetaxel	271	1150	752	1820	1740	180	791	122	517	1310
SNS-032 and CHIR-265	187	1240	816	251	371	-	313	98.0	186	1720
docetaxel and bexarotene	564	1640	721	1980	952	108	1020	554	580	1690
enzastaurin and decitabine	179	91.9	24.6	359	613	260	775	437	138	182
docetaxel and GW441756	517	588	1600	4000	985	713	306	86.5	428	1440
CHIR-265 and A-769662	128	774	390	368	108	83.0	345	1100	81.3	438
CHIR-265 and decitabine	226	2480	1440	251	395	202	166	230	212	1190
sorafenib and VX-702	261	111	57.4	113	98.2	129	105	146	110	120
sorafenib and decitabine	259	105	67.9	185	114	206	156	65.7	58.0	114
pazopanib and enzastaurin	242	132	64.3	192	119	62.8	52.7	150	32.7	228
decitabine and PD173074	287	120	34.5	184	91.5	135	91.3	144	123	133
VX-702 and GSK650394	74.8	83.4	56.4	136	188	-	71.7	146	85.6	93.9
PLX4720 and enzastaurin	283	111	61.8	85.4	143	67.7	69.6	212	93.2	166
MK-2206 and decitabine	221	199	300	198	61.3	55.5	95.0	254	217	263
GW441756 and PLX4720	310	30.9	55.7	106	10.2	384	89.8	118	34.8	180
docetaxel and VX-702	384	990	1220	683	2420	116	406	413	370	890

The first 4 entries again:

Pair	UACC-62	COLO 792	WM115	A2058	SK-MEL-2	A375	SK-MEL-28	RVH-421	SK-MEL-30	WM3526
enzastaurin and midostaurin	224	274	698	683	175	-	319	83.1	152	366
PD173074 and sorafenib	95.6	16.7	113	121	75.5	43.2	92.3	68.1	129	101
midostaurin and SNS-032	260	186	966	386	349	-	185	39.3	138	596
enzastaurin and CHIR-265	309	287	2370	207	290	219	149	182	187	343